Assay results reported in the supplement of paper PMC6143611.
Where a name gives a salt, the structure may show the parent alone. ± gives the uncertainty stated by the source. The list shows a part of the results. Baselines shift from plate to plate; read single values as rough.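 A heat-shock-induced fluorescent stripe was set in larval rod outer segments at 6 dpf. Shedding distance ran from stripe to outer segment tip, measured by confocal stacks in about three fish per compound. Controls: 0.2% DMSO vehicle. Flagged compounds showed ≥20% change from same-week control, p < 0.001 (Dunnett test on mixed-effects models).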

What was measured:
[1] = tested on: Danio rerio larva rod photoreceptor outer segment; experiment: rod outer segment growth distance Dg, difference from same-week DMSO control mean; higher = more outer segment growth; settings: 20 µM; treatment time: 4 days (6-10 dpf)
[2] = tested on: Danio rerio larva rod photoreceptor outer segment; experiment: rod outer segment shedding distance Ds, difference from same-week DMSO control mean; higher = less outer segment shedding; settings: 20 µM; treatment time: 4 days (6-10 dpf)

SMILES | rod outer segment growth distance Dg [1] [um] | rod outer segment shedding distance Ds [2] [um]
Cc1cccc(C#Cc2ccccc2)n1 | -2.69 ± 0.6 | -1.15 ± 0.31
COc1ccc([C@@H]2CC(=O)c3c(O)cc(O[C@@H]4O[C@H](CO[C@@H]5O[C@@H](C)[C@H](O)[C@@H](O)[C@H]5O)[C@@H](O)[C@H](O)[C@H]4O)cc3O2)cc1O [Hesperidin] | -0.53 ± 0.34 | 0.37 ± 0.39
CN1CCN(c2cccc(Nc3nc4c(-c5ccc(S(C)(=O)=O)cc5)cccn4n3)c2)CC1 | -1.07 ± 0.24 | 0.18 ± 0.15
O=C(c1ccc(F)cc1)C1CCN(CCn2c(=O)[nH]c3ccccc3c2=O)CC1 [Ketanserin] | -1.95 ± 0.28 | -1.28 ± 0.29
C/C=C1\[C@H]2C=C(C)C[C@]1(N)c1ccc(=O)[nH]c1C2 [(-)-Huperzine A (HupA)] | 0.4 ± 0.32 | -0.02 ± 0.41
CC(C)c1ccc(NC(=O)Cn2cnc3c2c(=O)n(C)c(=O)n3C)cc1 | -1.63 ± 0.17 | -0.73 ± 0.15
COc1cc2c(N3CCN(C(=O)Nc4ccc(OC(C)C)cc4)CC3)ncnc2cc1OCCCN1CCCCC1 [Tandutinib (MLN518)] | -0.33 ± 0.097 | -0.65 ± 0.2
CCCc1cc(=O)[nH]c(=S)[nH]1 [Propylthiouracil] | -0.05 ± 0.26 | -0.65 ± 0.29
C[C@]12C=CC(=O)C=C1CC[C@H]1[C@@H]3C[C@@H](O)[C@](O)(C(=O)CO)[C@@]3(C)C[C@H](O)[C@@]12F [Triamcinolone] | 0.11 ± 0.25 | -0.19 ± 0.32
CCC(C)(C)c1ccc(CC(C)CN2C[C@@H](C)O[C@@H](C)C2)cc1 (some centres not stated) [Amorolfine HCl] | -2.29 ± 0.28 | 0.09 ± 0.21
N[C@@H]1CN(c2c(F)cc3c(=O)c(C(=O)O)cn([C@@H]4C[C@@H]4F)c3c2Cl)CC12CC2 [Sitafloxacin Hydrate] | -0.71 ± 0.3 | -0.07 ± 0.36

Shown comma-delimited: entries from further up.
SMILES,rod outer segment growth distance Dg [1] [um],rod outer segment shedding distance Ds [2] [um]
Cc1cccc(C#Cc2ccccc2)n1,-2.69 ± 0.6,-1.15 ± 0.31
CN1CCN(c2cccc(Nc3nc4c(-c5ccc(S(C)(=O)=O)cc5)cccn4n3)c2)CC1,-1.07 ± 0.24,0.18 ± 0.15
